# In PubChem BioAssay AID1671190 (National Center for Advancing Translational Sciences (NCATS), 2021):
# The chains behind the UniProt entries cited, without tags or fusion partners.
# UniProt P18054, whole entry, looked up: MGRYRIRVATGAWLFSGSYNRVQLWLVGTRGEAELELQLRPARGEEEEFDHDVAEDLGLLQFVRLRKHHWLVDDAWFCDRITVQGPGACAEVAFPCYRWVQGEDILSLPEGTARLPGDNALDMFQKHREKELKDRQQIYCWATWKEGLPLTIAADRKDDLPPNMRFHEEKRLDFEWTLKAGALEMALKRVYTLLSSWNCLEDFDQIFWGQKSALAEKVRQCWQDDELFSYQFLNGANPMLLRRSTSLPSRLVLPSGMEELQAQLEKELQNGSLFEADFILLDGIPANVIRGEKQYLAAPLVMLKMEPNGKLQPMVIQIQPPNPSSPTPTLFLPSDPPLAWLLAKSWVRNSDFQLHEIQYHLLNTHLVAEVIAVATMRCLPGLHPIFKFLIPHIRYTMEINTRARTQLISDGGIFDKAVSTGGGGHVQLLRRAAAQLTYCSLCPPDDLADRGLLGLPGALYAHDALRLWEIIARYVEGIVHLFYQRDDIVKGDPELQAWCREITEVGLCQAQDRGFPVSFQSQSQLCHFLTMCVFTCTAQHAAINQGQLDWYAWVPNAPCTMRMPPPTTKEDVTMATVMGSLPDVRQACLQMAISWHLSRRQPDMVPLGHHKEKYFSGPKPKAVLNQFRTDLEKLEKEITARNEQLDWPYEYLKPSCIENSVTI
# Out of some 580,000 compounds screened, about 6,100 (1.1%) were called active. The shares of active, inactive and inconclusive entries below differ from those in the screen. Calls come from the whole dose curve; as a rule, active = well fitted inhibition curve with a large enough effect; inconclusive = small, poorly fitted or top-dose-only effect, or another doubt; inactive = no such curve, though single readings can be large or run the other way. Potencies beside an inconclusive call are fits to weak or partial responses and may not hold up.
# Molecular target: Polyunsaturated fatty acid lipoxygenase ALOX12 (Homo sapiens) (UniProt P18054)
# Assay: Primary qHTS assay for inhibitors of human arachidonate 12S-lipoxygenase (ALOX12): Round 2
# Conditions: purified 12hLO, xylenol orange hydroperoxide absorbance; activity change, negative = inhibition: at 108 µM (top of the series) unless noted
# Method in brief: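 Purified human 12hLO (150 nM final) in 25 mM Hepes, 0.01% Triton X-100, pH 7.0 was preincubated 15 min at room temperature with compound. Then 40 uM arachidonic acid was added, 30 min. Hydroperoxide was read by Fe-XO absorbance ratio 573/405 nm.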
# % is set by controls: 0 for no effect and ±100 for the full control effect; potency is the fitted concentration of half-maximal effect.
SMILES,Potency,"activity change, negative = inhibition"
CCNc1nc(NC(C)(C)C)nc(Oc2ccc(=O)n(-c3ccccc3)n2)n1,inactive,–
CS(=O)(=O)C1=NSC2=NC(=O)/C(=C\c3cccn3-c3ccccc3Cl)C(=N)N21,"inconclusive: 39.8 µM [inhibitor, partial curve]",–
Cc1ccc(S(=O)(=O)N2C[C@H]3n4c(=O)ccc(=O)n4C[C@H](OC(=O)Nc4cccs4)[C@@]3(O)C2)cc1,"inconclusive: 44.7 µM [inhibitor, partial curve, poor fit]",–
Cc1ccn2cc(-c3cccc(NC(=O)CCC(=O)O)c3)nc2c1,–,inconclusive: -38.7% [inhibitor]
CCc1ccccc1N1CC(c2nc3ccccc3n2CCOc2ccc(Cl)c(C)c2)CC1=O (centres undefined),"inconclusive: 79.4 µM [inhibitor, partial curve, poor fit]",–
Cc1ccc(O)c(NC(=S)NC(=O)CC(C)C)c1,"inconclusive: 3.16 µM [inhibitor, full curve, poor fit]",–
CCOC(=O)c1sc2nc(CSc3ccccc3)nc(N3CCCN(C)CC3)c2c1C,active: 5.62 µM,–
COc1ccc(C(C)NC(=O)c2ccc(-c3ccc(N4CCSCC4)nc3)cc2)cc1 (centres undefined),"inconclusive: 2.82 µM [inhibitor, full curve, poor fit]",–
O=C(c1ccc2nccn2c1)N1CCCCC1,"inconclusive: 56.2 µM [inhibitor, partial curve, poor fit]",–
COC(=O)c1c(C)[nH]c(C(=O)C(C)OC(=O)c2cc(C)oc2C)c1C (centres undefined),–,inactive: -12.1%
O=C(CCc1ncc(-c2ccccc2)o1)Nc1ccncc1,–,inactive: 8.75%
O=C(OCC(=O)N1CCc2ccccc21)c1ccccc1,–,inactive: 138%
O=C(Oc1ccc(OC(=O)N2CCOCC2)cc1)c1ccccc1,–,inactive: 15.3%
Nc1cccc(C(=O)NCC2CCN(Cc3cc(F)cc(F)c3)C2)c1 (centres undefined),–,inactive: 65.1%
CNC(=O)[C@@H](c1ccccc1)N1CCC[C@H]1C(=O)N1CCC1,"inconclusive: 20 µM [inhibitor, full curve, poor fit]",–
COc1ccc(C(=O)NCCN2CCCC2)cc1[N+](=O)[O-],"inconclusive: 39.8 µM [inhibitor, partial curve, poor fit]",–
O=C(CN1CCCCC1)NC1CC(=O)N(Cc2cccc3ccccc23)C1 (centres undefined),–,inactive: 11.1%
COc1ccc(-c2noc(-c3ccccc3C(=O)Nc3cccc(OC)c3)n2)cc1,"inconclusive: 141 µM [inhibitor, single point]",–
Nc1cc(N)nc(SCCC(=O)Nc2ccc(Br)cc2F)n1,"inconclusive: 44.7 µM [inhibitor, partial curve, poor fit]",–
Cc1cccc2cc(CN(c3ccccc3)S(C)(=O)=O)c(=O)[nH]c12,"inconclusive: 50.1 µM [inhibitor, partial curve, poor fit]",–
COc1cccc(C(=O)NC(=S)NCc2ccco2)c1,"inconclusive: 50.1 µM [inhibitor, partial curve]",–
COc1cccc(C(c2nnnn2C2CCCCC2)N2CCN(C/C=C/c3ccccc3)CC2)c1OC (centres undefined),"inconclusive: 50.1 µM [inhibitor, partial curve, poor fit]",–
CCC(C(=O)NCc1ccco1)N(C(=O)CNS(=O)(=O)c1ccccc1)C1CCCCC1 (centres undefined),–,inactive: -21.7%

SMILES,Potency,"activity change, negative = inhibition"
O=C(c1n[nH]c2ccccc12)N1CCC(c2nc(CCOCC3CCOCC3)no2)C1 (centres undefined),–,inactive: 6.37%
O=C(Cc1coc2cc3c(cc12)CCC3)NC1CCCCC1,"inconclusive: 100 µM [inhibitor, partial curve, poor fit]",–
Cc1ccsc1C(=O)N1CCCC(CCC(=O)NCc2ccccc2F)C1 (centres undefined),"inconclusive: 25.1 µM [inhibitor, single point]",–
COC(=O)[C@H](C)N(Cc1ccc(Cl)c(Cl)c1)S(=O)(=O)CCN1CCCC1,"inconclusive: 126 µM [inhibitor, single point]",–
CCOc1cccc(N(C(=O)Cc2cccs2)C(C(=O)NC2CCCCC2)c2cccn2C)c1 (centres undefined),–,inactive: -7.97%
CC(C(=O)Nc1c(F)cccc1F)N1CCN(c2ccc(O)cc2)CC1 (centres undefined),"inconclusive: 5.01 µM [inhibitor, full curve]",–
O=c1[nH]c(/C=C\c2ccc(O)c(O)c2)nc(O)c1[N+](=O)[O-],"inconclusive: 7.08 µM [inhibitor, full curve]",–
COc1ccc(-c2onc(C)c2-c2cnn(-c3ccccc3)c2)c(O)c1C,–,inactive: 20.4%
Cc1cccc(CCNC(=O)CN(c2ccc(C(C)C)cc2)S(=O)(=O)c2c(C)nn(C)c2C)c1,–,inactive: -2.82%
CCOC(=O)N1CCN(C(=O)C2CCCN(S(=O)(=O)c3ccc(OCC)cc3)C2)CC1 (centres undefined),–,inactive: 0%
CCOc1ccccc1C(=O)Oc1cc(C)[nH]c(=O)c1[N+](=O)[O-],"inconclusive: 6.31 µM [inhibitor, full curve, poor fit]",–
CCc1ccc(C(=O)N2CCC(c3n[nH]c(=O)n3Cc3ccc(F)cc3)CC2)cc1,"inconclusive: 17.8 µM [inhibitor, partial curve]",–
CCOc1ccc(NC(=O)N2c3ccccc3Sc3ccccc32)cc1,"inconclusive: 39.8 µM [inhibitor, partial curve, poor fit]",–
CC1=C[C@@H](CNC(=O)COc2ccccc2)[C@H](C(C)C)C[C@H]1Cc1nnc(-c2cncn2C)o1,–,inactive: -16.6%
Cn1c(NCCO)nc2c1c(=O)n(Cc1ccc(F)cc1)c(=O)n2C,inactive,–
COc1ccc(C)cc1N/C(N)=N/c1nc(C)cc(C)n1,–,inactive: 2.84%
COC(=O)c1cc(OC(=O)c2cc3ccccc3cc2OC)cc(C(=O)OC)c1,"inconclusive: 126 µM [inhibitor, single point]",–
S=C(NC1CCCCC1)N[C@H]1CO[C@H]2[C@@H]1OC[C@@H]2n1nnnc1Oc1cccc(N2CCOCC2)c1,"inconclusive: 3.98 µM [inhibitor, partial curve, poor fit]",–
CCCn1nccc1S(=O)(=O)N1CCc2nc(-c3ccccc3)[nH]c2C1,–,inactive: 35.6%
C=CCn1c(NC(=O)CC)c(C(=O)OCC)sc1=S,"inconclusive: 70.8 µM [inhibitor, single point]",–
Clc1ccc(-n2nnc(-c3nccs3)n2)cc1Cl,active: 5.62 µM,–
COc1ccc(NC(=O)Cc2c[nH]c3ncc(-c4cnn(C)c4)cc23)cn1,–,inactive: -2.93% [at 176 µM]
Cc1nn2c(nc(N3CCOCC3)c3ccccc32)c1C=C(C#N)C#N,–,inactive: -3.08%

# In the list so far, these have a furan ring, fused or not:
SMILES,Potency,"activity change, negative = inhibition"
COC(=O)c1c(C)[nH]c(C(=O)C(C)OC(=O)c2cc(C)oc2C)c1C (centres undefined),–,inactive: -12.1%
COc1cccc(C(=O)NC(=S)NCc2ccco2)c1,"inconclusive: 50.1 µM [inhibitor, partial curve]",–
CCC(C(=O)NCc1ccco1)N(C(=O)CNS(=O)(=O)c1ccccc1)C1CCCCC1 (centres undefined),–,inactive: -21.7%
O=C(Cc1coc2cc3c(cc12)CCC3)NC1CCCCC1,"inconclusive: 100 µM [inhibitor, partial curve, poor fit]",–

# Next part:

SMILES,Potency,"activity change, negative = inhibition"
CC1Cc2ccccc2N1C(=O)COc1nc2ccccc2nc1N1CCOCC1 (centres undefined),"inconclusive: 126 µM [inhibitor, single point]",–
Cc1ccc(NC(=O)c2ccc(NC(=O)c3ccccc3)cc2)cc1C,–,inactive: -8.57%
COc1ccc(C2C3=C(CCCC3=O)Nc3nc(SCc4ccccc4)nn32)cc1OC (centres undefined),"inconclusive: 89.1 µM [inhibitor, single point]",–
N#CCCn1c(=O)c(-c2cc(F)cc(F)c2)nc2cnc(Oc3cccc(Cl)c3)nc21,–,inactive: 0%
CCOc1ccccc1NC(=O)N(C)Cc1nc(-c2ccccc2C)oc1C,"inconclusive: 112 µM [inhibitor, single point]",–
CNC(=O)NC(=O)C(C)Sc1cc(C)c2cccc(C)c2n1 (centres undefined),–,inactive: -6.78%
CN1C(=S)NC(C)(C)CC1(C)c1ccc(O)cc1O (centres undefined),"inconclusive: 112 µM [inhibitor, partial curve, poor fit]",–
Cc1cc(NC(=O)COc2c(CO)cc(F)cc2CO)ccc1Br,"inconclusive: 31.6 µM [inhibitor, partial curve, poor fit]",–
C/C(=N\Nc1ccc(Cl)c(C(=O)O)c1)c1ccc(Br)s1,"inconclusive: 39.8 µM [inhibitor, partial curve, poor fit]",–
O=C(Nc1ccc(S(=O)(=O)NCc2ccccc2)cc1)c1ccc(Br)o1,–,inactive: -8.5%
COc1cc(OC)cc(C(=O)c2c(C)c(C#N)c3ccccn23)c1,–,inactive: 8.5%
CCOc1ccc(C(C)=O)cc1CSc1nnnn1-c1ccc(O)cc1,"inconclusive: 126 µM [inhibitor, single point]",–
C=C(C)COc1ccc2c(C)c(CCC(=O)NCC(O)c3ccccc3)c(=O)oc2c1 (centres undefined),–,inactive: -1.72%
CCN(C)C1CN(Cc2cn(CCCC(=O)OC)nn2)S(=O)(=O)C1 (centres undefined),"inconclusive: 35.5 µM [inhibitor, partial curve, poor fit]",–
CCC(C)(C)C1CCC(NC(=S)Nc2cccc(Cl)c2Cl)CC1 (centres undefined),–,inactive: -0.447%
CN(CCOC(=O)c1cc(Cl)ccc1Cl)C(C)(C)C,"inconclusive: 44.7 µM [inhibitor, partial curve, poor fit]",–
Cc1cc(O)c(N=Nc2ccc(C(=O)O)cc2)cc1C,"inconclusive: 50.1 µM [inhibitor, full curve, poor fit]",–
Cc1ccc(S(=O)(=O)N2CC(CBr)=CCC2c2ccccc2)cc1 (centres undefined),"inconclusive: 50.1 µM [inhibitor, partial curve, poor fit]",–
CCOC(=O)N1CCC(N2CCCC(CO)(Cc3ccccc3C)C2)CC1 (centres undefined),"inconclusive: 50.1 µM [inhibitor, partial curve, poor fit]",–
Cc1ccc(CNC(=O)c2cc(-c3ccccc3C)nn2CC2CC(c3cccnc3)=NO2)cc1 (centres undefined),"inconclusive: 5.62 µM [inhibitor, full curve, poor fit]",–
O=C1c2cccnc2C(Nc2cccc(F)c2)N1Cc1ccco1 (centres undefined),"inconclusive: 39.8 µM [inhibitor, partial curve, poor fit]",–
CC(C)(C)c1ccc(OCc2nn3c(-c4ccncc4)nnc3s2)cc1,"inconclusive: 35.5 µM [inhibitor, partial curve]",–
CCOc1cc(CNc2ccc(N3CCN(C(C)=O)CC3)cc2)cc(Br)c1OC,"inconclusive: 8.91 µM [inhibitor, full curve]",–
